Test results as given in PMC10287671.
No constants are given. Whether binding was seen depends on the method and setting. In cells and extracts the contact can be indirect. Some results given as binding are weak or reduced against the parent protein; the word gives no strength.

By UniProt entry, the sequences of proteins in these tests, tags left out.
UniProt P61264: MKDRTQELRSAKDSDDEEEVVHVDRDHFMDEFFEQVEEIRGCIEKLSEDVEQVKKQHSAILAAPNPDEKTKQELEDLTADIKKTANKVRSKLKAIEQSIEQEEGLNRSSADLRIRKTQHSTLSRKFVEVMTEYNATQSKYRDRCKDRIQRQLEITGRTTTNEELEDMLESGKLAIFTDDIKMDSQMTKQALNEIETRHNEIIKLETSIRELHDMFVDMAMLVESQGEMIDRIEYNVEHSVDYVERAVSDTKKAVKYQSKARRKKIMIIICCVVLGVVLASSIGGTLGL

Target: T1, syntabulin (mouse (endogenous in hippocampus)) (UniProt Q8BHS8)
T1 sequence: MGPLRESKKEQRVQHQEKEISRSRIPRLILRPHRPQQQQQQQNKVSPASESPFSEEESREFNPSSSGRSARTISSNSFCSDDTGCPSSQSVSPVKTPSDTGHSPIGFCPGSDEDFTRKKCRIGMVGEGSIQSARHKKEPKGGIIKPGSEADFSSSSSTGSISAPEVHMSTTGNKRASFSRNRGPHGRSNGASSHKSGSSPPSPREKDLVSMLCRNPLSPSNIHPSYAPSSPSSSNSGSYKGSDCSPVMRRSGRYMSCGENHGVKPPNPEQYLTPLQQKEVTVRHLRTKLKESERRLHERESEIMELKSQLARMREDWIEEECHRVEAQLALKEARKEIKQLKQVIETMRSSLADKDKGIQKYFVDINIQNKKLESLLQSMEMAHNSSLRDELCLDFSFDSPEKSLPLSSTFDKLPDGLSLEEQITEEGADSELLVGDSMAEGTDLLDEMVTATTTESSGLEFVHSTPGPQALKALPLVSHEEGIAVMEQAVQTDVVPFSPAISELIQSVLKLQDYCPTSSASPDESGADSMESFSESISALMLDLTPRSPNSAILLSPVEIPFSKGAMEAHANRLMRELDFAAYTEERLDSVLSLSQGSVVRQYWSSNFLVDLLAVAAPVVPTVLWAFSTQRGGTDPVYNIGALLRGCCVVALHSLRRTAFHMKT
Experiment: co-IP; mouse hippocampal lysates incubated at 4 °C for 2 h with antibodies (anti-syntabulin, anti-syntaxin 1A, anti-syntaxin 1B), protein A/G magnetic beads, Western blot; hippocampus of KA model mice, and epilepsy group against control group in the quantitative co-IP

binding: binds
Substance: syntaxin 1B (from UniProt P61264 1-288)
